Laboratory results published in PubChem BioAssay AID504834 (National Center for Advancing Translational Sciences (NCATS), 2011).
The campaign covered roughly 320,000 compounds. About 22,000 (6.9%) were called active. This list was built around the results that the source calls inconclusive (neither active nor inactive); the mix of calls is not that of the screen. Calls come from the whole dose curve; as a rule, active = well fitted inhibition curve with a large enough effect; inconclusive = small, poorly fitted or top-dose-only effect, or another doubt; inactive = no such curve, though single readings can be large or run the other way. Where the call is inconclusive, the potency comes from a doubtful curve fit.

assay: Primary qHTS for delayed death inhibitors of the malarial parasite plastid, 96 hour incubation; conditions: P. falciparum luciferase reporter growth; series mostly up to 28.7 µM; activity change, negative = inhibition: at the top concentration
Outline: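 Infected RBCs, 2% Hct / 0.05% parasitemia final; luciferase-reporter P. falciparum; cpd 96 h, 37 C, 5% CO2; luciferase detection reagent; luminescence.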
% is set by controls: 0 for no effect and ±100 for the full control effect; potency is the fitted concentration of half-maximal effect.

| Structure (SMILES) | Potency | activity change, negative = inhibition |
| --- | --- | --- |
| CCOc1ccc(-c2nc(N)ncc2Oc2ccc(OC)cc2)c(O)c1 | inconclusive: 18.5 µM [inhibitor, single point] | – |
| O=C(NC1CC1)C1CCN(C2CCN(C(=O)Cc3ccc4c(c3)OCO4)CC2)CC1 | active: 11.7 µM | – |
| CCCCN1CC(=O)N2[C@H]3c4ccccc4OC[C@@H]3[C@H](c3ccccc3)[C@]2(C)C1=O | active: 5.86 µM | – |
| Cc1nccn1-c1ccc(C=O)cc1 | – | inactive: 21% |
| Cc1ccc(S(=O)(=O)N2CCN(C(=O)c3cc(=O)[nH]c4ccccc34)CC2)c(C)c1 | inconclusive: 11.7 µM [inhibitor, partial curve] | – |
| CCCc1nc2c(=O)[nH]c3ccccc3c2o1 | – | inactive: -5.52% |
| COc1ccc(N2CCN(C(=O)c3c(-c4ccccc4)noc3C)CC2)cc1 | inconclusive: 18.5 µM [inhibitor, single point] | – |
| COc1ccc2[nH]c(=O)c(CN(C(=O)c3ccccn3)C3CCCCC3)cc2c1 | inconclusive: 18.5 µM [inhibitor, single point] | – |
| CCCCc1nn(-c2cc(Cl)ccc2OC)c2c1C(=O)CCC2 | inconclusive: 16.5 µM [inhibitor, partial curve, poor fit] | – |
| CC(=O)N1CCC(C(=O)Nc2nc(-c3ccccc3)ns2)CC1 | inconclusive: 18.5 µM [inhibitor, single point] | – |
| COc1ccccc1NC(=O)Nc1nc(CC(=O)Nc2cc(F)ccc2F)cs1 | inconclusive: 9.28 µM [inhibitor, single point] | – |
| Cc1cccc(NC(=O)Cc2ccc(NC3=NC4CS(=O)(=O)CC4S3)cc2)c1 (stereo not given) | inconclusive: 18.5 µM [inhibitor, single point] | – |
| CCN(CC)C(=O)CC(c1ccc(OC)cc1)c1c(OC)cc(OC)c2ccc(=O)oc12 (stereo not given) | inconclusive: 18.5 µM [inhibitor, single point] | – |
| Cc1ccc(C(=O)NC2CCN(CC(=O)Nc3cccc([N+](=O)[O-])c3)CC2)cc1 | – | inactive: -26.6% |
| Cc1ccc(O)c(N=Cc2cc(Cc3ccccc3)cc([N+](=O)[O-])c2O)c1 | inconclusive: 1.85 µM [inhibitor, partial curve, poor fit] | – |
| CC(=O)N1c2ccc(S(=O)(=O)NCCC(=O)NC3CCCCCC3)cc2CC1C (stereo not given) | inconclusive: 0.0041 µM [inhibitor, full curve, poor fit] | – |
| CC(NC(=O)COc1ccc(S(=O)(=O)N2CCCC2)cc1)c1ccccc1 (stereo not given) | – | inactive: -26.6% |
| CCOc1ccc2noc3c2c1C(=O)c1ccccc1-3 | – | inactive: 60.2% |
| O=C(O)/C=C/C(=O)N(Cc1ccccc1)Cc1ccco1 | – | inactive: 42.8% |
| CC(=O)Nc1ccc(OCC(O)Cn2c(C(C)C)nc3ccccc32)cc1 (stereo not given) | active: 2.33 µM | – |
| COc1ccccc1CNC(=O)CSc1ccc(Br)cc1 | – | inactive: -13.5% |
| c1csc(-c2nc(NCC3CCCO3)c3ccccc3n2)c1 (stereo not given) | inconclusive: 16.5 µM [inhibitor, single point] | – |
| O=C(c1ccc(Cl)cc1)C1CCN(C(=O)NC2CCCCC2)CC1 | inconclusive: 18.5 µM [inhibitor, single point] | – |
| CC1(C)CC(N=c2cc(-c3ccccc3)oc3ccc(Cl)cc23)CC(C)(C)N1 | inconclusive: 16.5 µM [inhibitor, single point] | – |

| Structure (SMILES) | Potency | activity change, negative = inhibition |
| --- | --- | --- |
| C#CCOc1ccc(Cl)cc1/C=C1/C(=O)ON=C1C | inconclusive: 4.15 µM [inhibitor, partial curve, poor fit] | – |
| CCc1noc(C)c1C(=O)Nc1ccc(S(=O)(=O)N2CCCC(C)C2)cc1 (stereo not given) | inconclusive: 18.5 µM [inhibitor, single point] | – |
| COCC(C)NC(=O)CSc1nc2ccccc2n1CCc1ccccc1 (stereo not given) | active: 10.4 µM | – |
| COc1ccc(CNc2ccc3c(c2)ncn3C)cc1OC | – | inactive: 14.3% |
| COc1cc(C(=O)Oc2c(CN3CCOCC3)cc(Cl)c3cccnc23)cc(OC)c1OC | inconclusive: 13.1 µM [inhibitor, partial curve, poor fit] | – |
| CCCCOc1ccccc1-c1cc(C(=O)O)[nH]n1 | inconclusive: 13.1 µM [inhibitor, partial curve, poor fit] | – |
| COc1ccc2c(c1)-c1nc(/N=C/c3cccc(OC)c3O)sc1CC2 | – | inactive: 20.6% |
| O=C(O)CC1(CC(=O)NCc2ccccn2)CCCCC1 | – | inactive: 36% |
| COc1ccc(N2CCN(C(=S)Nc3cc(C)ccc3C)CC2)cc1 | – | inactive: 127% |
| CCOc1ccc(NC(=O)C2C(c3ccccc3)C2(Cl)Cl)cc1 (stereo not given) | inconclusive: 2.08 µM [inhibitor, full curve] | – |
| NS(=O)(=O)c1ccc(CCNC(=O)c2cc(-c3ccc(Br)cc3)nc3ccccc23)cc1 | inconclusive: 1.04 µM [inhibitor, full curve, poor fit] | – |
| Cc1ccc(C(=O)NC2CCCc3ccccc32)o1 (stereo not given) | inconclusive: 18.5 µM [inhibitor, single point] | – |
| COc1cccc(C(=O)c2c[nH]c(C(=O)NCc3cccs3)c2)c1 | inconclusive: 10.4 µM [inhibitor, partial curve, poor fit] | – |
| O=C(c1ccc(F)cc1)c1ccc(N2CCCCC2)cc1 | – | inactive: -13.3% |
| CC(C)n1cnc2c(Nc3cccc(Cl)c3)nc(NCCCO)nc21 | active: 14.7 µM | – |
| O=C(CSc1nnnn1C1CCCC1)Nc1ccc2c(c1)OCCO2 | inconclusive: 10.4 µM [inhibitor, partial curve] | – |
| CCC(=O)NC(=S)Nc1ccc(OC)cc1OC | – | inactive: -31.1% |
| O=C1C=C(NNC(=O)c2ccncc2)CC(c2ccccc2)C1 (stereo not given) | inconclusive: 4.65 µM [inhibitor, partial curve, poor fit] | – |
| C/C=C/C(=O)OCC(=O)Nc1cc(-c2cc(C)c(C)cc2C)nn1-c1ccccc1 | inconclusive: 10.4 µM [inhibitor, single point] | – |
| Cc1cc(C)nc(NC(=O)c2cccc([N+](=O)[O-])c2)c1 | inconclusive: 20.8 µM [inhibitor, partial curve, poor fit] | – |
| O=[N+]([O-])c1ccc(-c2nn(-c3ccccc3)cc2/C=N/n2c(-c3ccncc3)n[nH]c2=S)cc1 | inconclusive: 13.1 µM [inhibitor, single point] | – |
| COc1ccc(NS(=O)(=O)c2ccc3nc(COc4ccc(Cl)c(C)c4)[nH]c3c2)cc1 | inconclusive: 11.7 µM [inhibitor, partial curve, poor fit] | – |
| COc1ccc(C(=O)Oc2cc3c4c(c2)C(C)=CC(C)(C)N4C(=O)C3=O)cc1OC | inconclusive: 9.28 µM [inhibitor, single point] | – |
| CCOC(=O)c1c(NC(=O)Cn2cnc([N+](=O)[O-])n2)sc2c1CCC(C)C2 (stereo not given) | inconclusive: 5.86 µM [inhibitor, partial curve, poor fit] | – |

| Structure (SMILES) | Potency | activity change, negative = inhibition |
| --- | --- | --- |
| CCN(CC)S(=O)(=O)c1cccc(N=NC2=C(O)CCCC2=O)c1 | inconclusive: 10.4 µM [inhibitor, single point] | – |
| CCCN1CCN(CCCNC(=O)C2CCCN(c3nc4ccc(OCC)cc4s3)C2)CC1 (stereo not given) | – | inactive: 13% |
| CCNC(=O)NC(=O)C(C)On1nnc2ccc(S(=O)(=O)N(CC)CC)cc21 (stereo not given) | – | inactive: 1.89% |
| COc1cccc(-c2ccc3ncnc(NCc4cccc(F)c4)c3c2)c1 | active: 3.7 µM | – |
| CC(NC(=O)CN(C)CC(=O)Nc1ccc(F)c(F)c1F)c1ccccc1 (stereo not given) | – | inactive: -0.396% |
| O=C(Nc1ccc2c(c1)OCCO2)N1CCN(c2ccccc2)CC1 | – | inactive: 44.9% |
| CC(=O)Nc1ccc(C2(c3ccc(NC(C)=O)cc3)C(=O)Nc3ccccc32)cc1 | inconclusive: 2.08 µM [inhibitor, partial curve, poor fit] | – |
| O=C(Nc1ccc(S(=O)(=O)N2CCCC2)cc1)c1ccc(CN2CCOCC2)cc1 | – | inactive: 23.8% |
| COc1cccc(Nc2nc3ccccc3nc2NS(=O)(=O)c2cccs2)c1 | inconclusive: 0.0033 µM [inhibitor, full curve, poor fit] | – |
| CCCCc1ccc(NC(=O)CSc2nnc(C)c(=O)n2N)cc1 | inconclusive: 4.15 µM [inhibitor, single point] | – |
| O=C(C1CCCN(Cc2ccccc2F)C1)N1CCc2ccccc2C1 (stereo not given) | – | inactive: 1.31% |
| CC(=O)Nc1ccc(S(=O)(=O)N2CCC(C(=O)NCc3ccco3)CC2)cc1 | inconclusive: 9.28 µM [inhibitor, partial curve] | – |
| CCn1c(=O)cc(OCC(=O)NCCc2ccc(OC)c(OC)c2)c2ccccc21 | inconclusive: 18.5 µM [inhibitor, single point] | – |
| Nc1c(C(=O)Nc2ccccc2)nnn1-c1ccc2c(c1)OCCO2 | – | inactive: -1.83% |
| O=C(Cn1nnc(-c2ccc(S(=O)(=O)N3CCCC3)cc2)n1)Nc1ccccc1-n1cccc1 | inconclusive: 18.5 µM [inhibitor, single point] | – |
| O=C(CNC(=O)c1ccc2c(c1)OCCO2)N/N=C/c1cccc(Br)c1 | inconclusive: 18.5 µM [inhibitor, single point] | – |
| Cc1cc(NC(=O)CSc2nc3cc4c(cc3c(=O)n2CCc2ccccc2)OCO4)no1 | inconclusive: 3.7 µM [inhibitor, single point] | – |
| COCC(=O)N1CCC(Oc2ccc(C(=O)NC(C)c3nc(C)sc3C)cc2)CC1 (stereo not given) | – | inactive: 1.62% |
| Cc1c(Cl)cccc1-c1ccc(/C=N/n2cnnc2)o1 | active: 8.28 µM | – |
| O=C(CCc1nc2ccccc2c(=O)[nH]1)Nc1cccc(S(=O)(=O)N2CCOCC2)c1 | inconclusive: 6.57 µM [inhibitor, partial curve] | – |
| CC(=O)c1ccc(OCc2cc(C(=O)N(C)C3CCOC3)no2)cc1 (stereo not given) | active: 11.7 µM | – |
| Cc1cc(C)nc(N/N=C/C=C/c2ccccc2)n1 | inconclusive: 18.5 µM [inhibitor, single point] | – |

Of the compounds above, these contain an aryl thioether with sulfur outside any ring:

| Structure (SMILES) | Potency | activity change, negative = inhibition |
| --- | --- | --- |
| COc1ccccc1CNC(=O)CSc1ccc(Br)cc1 | – | inactive: -13.5% |
| COCC(C)NC(=O)CSc1nc2ccccc2n1CCc1ccccc1 (stereo not given) | active: 10.4 µM | – |
| O=C(CSc1nnnn1C1CCCC1)Nc1ccc2c(c1)OCCO2 | inconclusive: 10.4 µM [inhibitor, partial curve] | – |
| CCCCc1ccc(NC(=O)CSc2nnc(C)c(=O)n2N)cc1 | inconclusive: 4.15 µM [inhibitor, single point] | – |
| Cc1cc(NC(=O)CSc2nc3cc4c(cc3c(=O)n2CCc2ccccc2)OCO4)no1 | inconclusive: 3.7 µM [inhibitor, single point] | – |
